PubChem BioAssay AID1259308 – NCATS | 2017
Here is a random part of about 59,000 reagents tested. About 1,510 of them (2.6%) count as active. 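Calls use total luciferase alone and ignore viability, so some active siRNAs may act by altering cell number.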 Reagents against one gene are numbered here. Not all columns of the deposit are shown.

- Aim: 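Genes whose loss raises luciferase production in HEK293 cells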 (primary screen)
- Cells: human HEK293 embryonic kidney cells stably expressing firefly luciferase (HEK-CMV-Luc2-Hygro)
- Reagents: single siRNA against human genes, 0.8 pmol siRNA per well
- Timing: 72 h
- Measured: 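Reporter luminescence and viable-cell signal on separate replicate plates, given as percent of non-targeting control and median/MAD z-scores, plus per-cell luciferase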
- Scale: total luciferase, z-score and total luciferase, % of control: higher = more reporter protein produced
- Hit rule: 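Active when the median/MAD z-score for overall luciferase is greater than 3; a gene was taken forward for validation with new siRNAs if at least two of its three siRNAs passed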
- Calls: active = raised luciferase; inactive = no rise

| gene | siRNA no. | total luciferase, z-score | total luciferase, % of control | Outcome |
| --- | --- | --- | --- | --- |
| CECR2 (GeneID 27443) | 1 | 0 | 81.9 | inactive |
| CECR2 (GeneID 27443) | 2 | -0.0374 | 81.1 | inactive |
| CECR2 (GeneID 27443) | 3 | -0.41 | 73.7 | inactive |
| TP53BP1 (GeneID 7158) | 1 | 0.976 | 101 | inactive |
| TP53BP1 (GeneID 7158) | 2 | 1.55 | 113 | inactive |
| TP53BP1 (GeneID 7158) | 3 | 0.93 | 100 | inactive |
| CSNK1A1L (GeneID 122011) | 1 | 0.577 | 93.4 | inactive |
| CSNK1A1L (GeneID 122011) | 2 | -0.303 | 75.9 | inactive |
| CSNK1A1L (GeneID 122011) | 3 | -0.3 | 75.9 | inactive |
| AFDN (GeneID 4301) | 1 | -0.415 | 73.6 | inactive |
| AFDN (GeneID 4301) | 2 | 0.0545 | 83 | inactive |
| AFDN (GeneID 4301) | 3 | 0.141 | 84.7 | inactive |
| AFDN (GeneID 4301) | 4 | 0.265 | 87.2 | inactive |
| AFDN (GeneID 4301) | 5 | -1.71 | 48 | inactive |
| AFDN (GeneID 4301) | 6 | -0.195 | 78 | inactive |
| TUBG1 (GeneID 7283) | 1 | 0.0573 | 83 | inactive |
| TUBG1 (GeneID 7283) | 2 | -1.64 | 49.3 | inactive |
| TUBG1 (GeneID 7283) | 3 | 1.44 | 111 | inactive |
| USPL1 (GeneID 10208) | 1 | 3.14 | 144 | active |
| USPL1 (GeneID 10208) | 2 | 2.43 | 130 | inactive |
| USPL1 (GeneID 10208) | 3 | 2.96 | 141 | inactive |
| TBC1D16 (GeneID 125058) | 1 | 1.94 | 120 | inactive |
| TBC1D16 (GeneID 125058) | 2 | 1.02 | 102 | inactive |
| TBC1D16 (GeneID 125058) | 3 | -0.345 | 75 | inactive |

Entries listed so far whose target name starts with C or c (6):
| gene | siRNA no. | total luciferase, z-score | total luciferase, % of control | Outcome |
| --- | --- | --- | --- | --- |
| CECR2 (GeneID 27443) | 1 | 0 | 81.9 | inactive |
| CECR2 (GeneID 27443) | 2 | -0.0374 | 81.1 | inactive |
| CECR2 (GeneID 27443) | 3 | -0.41 | 73.7 | inactive |
| CSNK1A1L (GeneID 122011) | 1 | 0.577 | 93.4 | inactive |
| CSNK1A1L (GeneID 122011) | 2 | -0.303 | 75.9 | inactive |
| CSNK1A1L (GeneID 122011) | 3 | -0.3 | 75.9 | inactive |
